The campaign covered roughly 330,000 compounds. About 7,700 (2.3%) were called active. The call rests on the fitted dose curve; in most records, active means well fitted inhibition curve with a large enough effect; inconclusive means small, poorly fitted or top-dose-only effect, or effect the other way; inactive means flat fitted curve, though single readings scatter. Inconclusive means that the source gave no clear call. Potencies beside an inconclusive call are fits to weak or partial responses and may not hold up.
Assay: qHTS screen for small molecules that inhibit ELG1-dependent DNA repair in human embryonic kidney (HEK293T) cells expressing luciferase-tagged ELG1; further: nearly all actives have a fitted effect of over 55% in size
Conditions: HEK293T ELG1-luciferase reporter, luminescence, 16 h, DNA damage induced by 5-fluorouridine; series mostly up to 46.1 µM
Outline: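 DMSO vehicle served as the neutral condition. Each well held 2,000 cells given 5-fluorouridine plus compound; after 16 hr at 37 °C/5% CO2, ONE-Glo was added and luciferase measured 30 min later.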
Potency means the concentration at half of the fitted maximal effect.

Which Potency does the source give for `CC(C)(C)c1ccc2c(c1)OC(C(=O)N/N=C\c1ccc(-c3cccc(C(=O)O)c3)o1)CO2` (configuration not stated) here?
The Potency was inconclusive: 16.4 µM [activator, partial curve, poor fit].

With `COc1cc(/C=C2\C(=N)N3N=C(S(C)(=O)=O)SC3=NC2=O)ccc1OS(=O)(=O)c1ccccc1` as the compound, how does the Potency read?
The Potency was inconclusive: 16.4 µM [activator, single point].

Reference: PubChem BioAssay AID504467 (National Center for Advancing Translational Sciences (NCATS), 2011)
